# Measurements as given in PubChem BioAssay AID493014 (National Center for Advancing Translational Sciences (NCATS), 2011).
# About 170 (0.05%) of roughly 340,000 compounds were called active. Inconclusive means that the source gave no clear call. Such entries were picked first, then a sample of the others. The call rests on the fitted dose curve; in most records, active means well fitted inhibition curve with a large enough effect in the signal ratio, with a control signal flat (not every such curve was filed as active); inconclusive means small, poorly fitted or top-dose-only effect, or effect the other way, or a change in a side signal; inactive means flat fitted curve, though single readings scatter; the % refers to the signal ratio. Where the call is inconclusive, the potency comes from a doubtful curve fit.
# Experiment: qHTS Assay to Find Inhibitors of Chronic Active B-Cell Receptor Signaling;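 on activity change, negative = inhibition: plate controls were basal doxycycline-induced cells for no effect and cells given 10 µM MG132 for full effect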
# Details: ABC-DLBCL IkBa-CBG/CBR reporter, luminescence ratio (green luciferase fused to IkBa over red control in TMD8 lymphoma cells), 4 h; activity change, negative = inhibition: at 46.1 µM (top of the series)
# Method in brief: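 Cell line TMD8 (human ABC DLBCL), stably expressing tet-inducible CBG68-IkBa fusion and CBR; IMDM/0.5% FBS; cpd up to 46 uM; dox induction, 4 h, 37C/5% CO2; dual luminescence; green/red ratio; MG132 control.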
# Potency means the concentration at half of the fitted maximal effect.
SMILES,"activity change, negative = inhibition",Potency
COc1ccc(/C=C/C(=O)OCC(=O)NC2CCCC(C)C2C)c(OC)c1 (configuration not stated),inconclusive: 2.6%,–
CCOC(=O)N1CCN(Cc2nc3ccc([N+](=O)[O-])cc3c(=O)n2-c2ccccc2F)CC1,inconclusive: 4.35%,–
CN(C)c1ccc(N/C=C/C(=O)c2ccco2)cc1,–,"inconclusive: 23.1 µM [falling, single point]"
COc1cccc(N2CCN(C(=O)C3CCN(S(=O)(=O)c4ccc5c(c4)CC(C)N5C(C)=O)CC3)CC2)c1 (configuration not stated),inactive: -0.419%,–
CCCCn1c(SCc2c(C)noc2C)nc2cc(S(N)(=O)=O)ccc21,inconclusive: 4.23%,–
NS(=O)(=O)c1cccc(NC(=O)CN2CCc3ccccc32)c1,–,"inconclusive: 12.6 µM [falling, partial curve]"
COCCNC(=S)NNC(=O)c1cc(-c2cccnc2)nc2ccccc12,inactive: 2.56%,–
CC(=O)c1cccc2c(O)c(C3=Nc4ccccc4C3=O)[nH]c12,–,"inconclusive: 8.2 µM [falling, partial curve]"
Brc1ccc(-c2noc(-c3ccccc3)n2)o1,–,"inconclusive: 17.8 µM [falling, single point]"
CC(C)Cc1csc(NC(=O)c2ccccc2Cl)c1C(=O)O,–,"inconclusive: 20.6 µM [falling, single point]"
Cc1cc(C(=O)CSc2nnc(CCC(N)=O)n2C)c(C)n1C1CC1,inconclusive: 7.8%,–
CCOc1ccc(NC(=O)CN2C(=O)/C(=C3\SC(=S)N(C4CCS(=O)(=O)C4)C3=O)c3ccccc32)cc1 (configuration not stated),inconclusive: 1.56%,–
COc1ccc(C(=O)Nc2ccc(C(=O)O)cc2NC(=O)c2ccc(OC)cc2)cc1,inactive: 6.5%,–
COc1cc(C(=O)COC(=O)C2CCCCC2)cc(OC)c1OC,inconclusive: -1.16%,–
O=C(O)CCC(=O)Nc1cccc(C(=O)Nc2ccc(Br)cc2)c1,–,"inconclusive: 25.1 µM [falling, partial curve, poor fit]"
CC(=O)Nc1ccc(NC(=O)c2ccc(CN3CCc4ccccc4C3)cc2)cc1,inactive: 0.988%,–
O=C1OCCN1C(=O)[C@H]1[C@H](c2ccc(Cl)cc2)C(c2cccc(Cl)c2)=NN1c1ccc(Br)cc1,inconclusive: 11%,–
Cc1ccccc1C(=O)NC(=S)Nc1ccc(Oc2ccc(Cl)cc2)cc1,inactive: 8.49%,–
COC(=O)Cn1ncc(N2CC(C)OC(C)C2)c(Cl)c1=O (configuration not stated),inconclusive: -5.47%,–
Cc1cc(C)cc(OCC(=O)Nc2cc(C)on2)c1,inconclusive: 1.95%,–
CNC(=O)CSc1nnc(COc2ccc([N+](=O)[O-])cc2)n1C,inconclusive: -19.6%,–
CCc1ccc(OC(=O)Nc2ccccc2)cc1,inactive: -7%,–
Cc1cccc(C(=O)NNC(=O)c2ccccc2[N+](=O)[O-])c1,–,"inconclusive: 25.1 µM [falling, single point]"
O=C1/C(=C/c2ccc([N+](=O)[O-])cc2)C=C(c2ccccc2)N1c1ccc(O)cc1,inconclusive: 12.5%,–
CC(C)Oc1cccc(C(=O)Nc2ccc(CN3CCOCC3)cc2)c1,inactive: 1.43%,–
O=C(CSc1nnc(NC2CC2)s1)c1ccc[nH]1,–,"inconclusive: 20.6 µM [falling, single point]"

# Full records as entered above.
# `CC(C)Oc1cccc(C(=O)Nc2ccc(CN3CCOCC3)cc2)c1` is listed as activity change, negative = inhibition: inactive: 1.43%
# `CC(C)Cc1csc(NC(=O)c2ccccc2Cl)c1C(=O)O` is listed as Potency: inconclusive: 20.6 µM [falling, single point]
# `NS(=O)(=O)c1cccc(NC(=O)CN2CCc3ccccc32)c1` is listed as Potency: inconclusive: 12.6 µM [falling, partial curve]

# Continuation.

SMILES,"activity change, negative = inhibition",Potency
Nc1n[nH]c(N)c1N=Nc1ccc2c(c1)OCO2,–,"inconclusive: 35.5 µM [falling, single point]"
O=C(CSc1ncn[nH]1)NCc1ccccc1Cl,inactive: -19.9%,–
O=C(/C=C/c1ccccc1O)c1ccco1,–,"inconclusive: 15.8 µM [falling, single point]"
N=c1n(CC(=O)c2cccs2)c2ccccc2n1Cc1ccccc1,inconclusive: -17.1%,–
CCN(CC)C(=S)SCC(=O)c1ccc(Br)cc1,–,"inconclusive: 23.1 µM [falling, single point]"
COCCNS(=O)(=O)c1ccc2c(c1)C(=NO)c1cc(S(=O)(=O)NCCOC)ccc1-2,inconclusive: -0.863%,–
O=C1CCC(c2ccccc2)(C2CCN(Cc3ccccc3)CC2)C(=O)N1 (configuration not stated),inactive: 2.93%,–
C/C(=N\NC(=O)c1cc(O)cc(O)c1)c1ccc(NC(=O)Cc2ccccc2)cc1,–,"inconclusive: 10 µM [falling, partial curve]"
Cc1ccc(S(=O)(=O)N2c3cc(C)ccc3OCC2C(C)(C)C)cc1 (configuration not stated),inconclusive: -18.1%,–
CCCCSc1cc(=O)[nH]c(N)n1,inconclusive: -23.8%,–
CCOC(=O)C1(Cc2ccccc2C)CCCN(C(=O)CCc2cccnc2)C1 (configuration not stated),–,"inconclusive: 11.2 µM [rising, partial curve, poor fit]"
CC(C)CN(C(=O)c1cc(Cl)nc2ccccc12)c1c(N)n(Cc2ccccc2)c(=O)[nH]c1=O,inconclusive: 5.41%,–
O=C1c2ccccc2S(=O)(=O)N1CC1CC(c2ccccc2Cl)=NO1 (configuration not stated),inconclusive: 0.103%,–
CCOC(=O)c1ccc(Cl)c(NC(=O)c2ccc(-c3ccccc3)cc2)c1,inactive: -13.3%,–
O=C(CSC1=NS(=O)(=O)c2ccccc2N1)Nc1cccc(F)c1,–,"inconclusive: 23.1 µM [falling, partial curve, poor fit]"
COC(=O)c1ccccc1NC(=O)CSc1nnnn1-c1ccc(C)cc1C,inactive: -1.74%,–
CN1/C(=C\C=C(/C#N)C(=O)Nc2ccc(Cl)cc2)C(C)(C)c2ccccc21,inactive: 4.79%,–
O=C(Nc1ccc(Cl)cc1)c1cc(S(=O)(=O)N2CCOCC2)cs1,–,"inconclusive: 14.6 µM [rising, partial curve]"
CC(O)CNCCCCOc1ccc(OCc2ccccc2)cc1 (configuration not stated),inconclusive: -9.7%,–
O=C(OCn1ncc(Cl)c(Cl)c1=O)c1ccc(F)cc1,–,"inconclusive: 35.5 µM [rising, single point]"
COc1cc(NC(=S)Nc2cccc(C)n2)cc(OC)c1OC,inactive: 1.24%,–
CC(C)CCNC(=O)c1ccc(OC2CCN(S(=O)(=O)N(C)C)CC2)cc1,–,"inconclusive: 3.98 µM [falling, single point]"
CC(O)CNc1nc(NCc2ccccc2)c2cnn(C)c2n1 (configuration not stated),inactive: -12.7%,–
CCc1nnc(NC(=O)C(=O)NCCOC(=O)c2ccccc2)s1,–,"inconclusive: 29.1 µM [falling, single point]"
CC(=O)NC(Cc1ccccc1)C(=O)NC1CCN(c2ncccc2[N+](=O)[O-])CC1 (configuration not stated),inconclusive: 4.17%,–
CSc1cccc2sc(NC(=O)C3=COCCO3)nc12,inconclusive: 2.92%,–

SMILES,"activity change, negative = inhibition",Potency
COCCCNC(=O)c1ccc(Cn2c(=O)c3ccccc3n(Cc3ccccc3C)c2=O)cc1,inactive: -18.4%,–
CCOC(=O)CN1C(=O)Nc2ccc(Br)cc2C1c1ccccc1 (configuration not stated),inconclusive: 7.91%,–
Cc1ccccc1NC(=O)CCCCC(=O)Nc1ccccc1C,inconclusive: 2%,–
Cc1[nH]c2ccc(F)cc2c1CCN(Cc1ccco1)C(=S)NC(C)(C)C,inconclusive: -13.7%,–
Cc1cc(=O)[nH]c(SCc2nnc(-c3ccccc3)o2)n1,–,"inconclusive: 20.6 µM [falling, partial curve]"
CC(=O)N1c2ccc(S(=O)(=O)N3CCC(C(=O)NCCc4ccc(Cl)cc4)CC3)cc2CC1C (configuration not stated),inactive: -5.18%,–
COc1ccc(N2CCN(c3nc4ccc(C)cn4c(=O)c3C=O)CC2)cc1,inconclusive: -0.256%,–
CCN(CC(=O)Nc1c(F)cccc1F)C(=O)CN1C(=O)c2ccccc2C1=O,inconclusive: 4.52%,–
COc1ccc(CCC(C)NC(=O)Cc2ccc(OC)c(OC)c2)c(OC)c1 (configuration not stated),inactive: -3.68%,–
O=C(CSc1nnc(NC(=O)C2CC2)s1)Nc1ccccc1Cl,inconclusive: 2.86%,–
COc1ccc(/C=C/C(=O)c2cc(F)ccc2OC(=O)c2ccccc2C)cc1OC,–,"inconclusive: 10.3 µM [falling, partial curve]"
Cc1ccc(Nc2nnc(C3C(=O)N(C)C4(C)CC3c3cc(Br)ccc3O4)s2)cc1 (configuration not stated),inconclusive: -0.165%,–
CN1CCC(N(C)S(=O)(=O)c2ccc(NC(=O)c3ccc(S(=O)(=O)N(C)C)cc3)cc2)CC1,–,"inconclusive: 20.6 µM [falling, partial curve, poor fit]"
COC(=O)c1ccc(CN2C(=O)NC(Cc3c[nH]c4ccccc34)C2=O)cc1 (configuration not stated),–,"inconclusive: 15.8 µM [falling, partial curve, poor fit]"
O=C(CNC(=O)c1cccs1)NCC(=O)OCC(=O)c1ccccc1,inconclusive: 0.31%,–
CCOC(=O)C1CCCN(C(=O)CNC(=O)Cn2ccc3ccccc3c2=O)C1 (configuration not stated),inconclusive: 1.43%,–
COc1ccc(NC(=O)Cn2nnc(-c3ccccc3NC(=O)c3ccco3)n2)cc1,inactive: -2.04%,–
CC(C)NC(=O)c1ccc(-c2cc(C(F)(F)F)ccc2Cl)o1,–,"inconclusive: 32.6 µM [falling, single point]"
OC1CCCN(c2c3c(nc4cc(-c5cccc(Cl)c5)nn24)CCC3)C1 (configuration not stated),inconclusive: 9.95%,–
CCc1nc(SCc2ccccn2)[nH]c(=O)c1C,inconclusive: 23.6%,–
O=C(CCC(=O)c1cccs1)c1cccs1,–,"inconclusive: 25.1 µM [falling, partial curve]"
CCOc1ccc(N=C2NC(=O)C(CC(=O)Nc3ccc(OC)cc3)S2)cc1 (configuration not stated),–,"inconclusive: 6.31 µM [falling, single point]"
Cc1ccccc1C(=O)NNC1CC(=O)N(c2ccc3c(c2)OCCO3)C1=O (configuration not stated),–,"inconclusive: 20.6 µM [falling, single point]"
COc1ccccc1N(O)C1CC(=O)N(c2ccc(F)cc2)C1=O (configuration not stated),–,"inconclusive: 23.1 µM [falling, partial curve]"
O=C(Cc1ccccc1[N+](=O)[O-])N1CCN(c2ccc(F)cc2)CC1,–,"inconclusive: 11.2 µM [falling, partial curve, poor fit]"
